From patent US20240425614A1 (NARA MEDICAL UNIVERSITY, published 2024)
Changes are numbered by the printed parent chain. Results are given in words; binding and its absence hold for the method and conditions named. Some entries that bind do so weakly or less than the wild type.

T1: ADAMTS13 MD recombinant antigen (ADAMTS13 metalloprotease domain (MP) linked with a disintegrin-like domain (D)) (UniProt Q76LX8)
T1 sequence (looked up): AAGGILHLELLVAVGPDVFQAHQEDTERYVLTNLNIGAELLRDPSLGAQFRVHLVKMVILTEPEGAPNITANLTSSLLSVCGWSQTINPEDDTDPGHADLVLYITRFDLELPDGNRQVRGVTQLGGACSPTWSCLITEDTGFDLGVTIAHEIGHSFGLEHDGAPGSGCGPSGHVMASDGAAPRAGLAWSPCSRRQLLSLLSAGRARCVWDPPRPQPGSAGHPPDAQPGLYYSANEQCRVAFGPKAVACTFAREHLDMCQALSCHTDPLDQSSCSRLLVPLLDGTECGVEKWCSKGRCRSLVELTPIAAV

B1: 1G2 antibody (antibody, mouse IgG1, kappa, V domains shown)
VH: QVQLRESGPGLVAPSQSLSITCTVSGFSLPRYGIHWVRQPPGKGLEWLGVIWAGGSTDYDSALMSRLSISKDTSKSQVFLKMSSLQTDDTAIYYCARAGGSQPFDYWGQGTTLTVSS
VL: DIKMTQSPSSMYASLGERVTITCKASRDINTYLSWFQQKPGKSPKTLISRANRLVDGVPSRFSGSGSGQDYSLSISSLEYEDMGFYYCLQYDEFPWTFGGGTKLVIKR
B2: 12D10 antibody (antibody, mouse IgG1, kappa, V domains shown)
VH: QVQLKESGPGLVAPSQSLSITCTVSGFSLTRYGVHWVRQPPGKGLEWLGVIWAGGSTNYKSALMSRLNITKDNSKSQVFLKMNGLQTDDTAIYFCARAGGSSSFDYWGQGTTLTVSS
VL: B1 VL with Y12N, R27Q, S34G, S49Y, D70G, S74T, F85I, V105E
B3: 9A7 antibody (antibody, mouse IgG2b, kappa, V domains shown)
VH: QVQLKESGPGLVAPSQSLSITCTVSGFSLTGYGIHWVRQPPGKGLEWLGVIWADGTTNSNSALMSRLSISKDNSKSQVFLKMTSLQTDDTAMYHCARAGGSQPFDYWGQGTTLTVSS
VL: B1 VL with R27Q, T31S, S49F, S74T, G84E, F85I, V105E

target: T1, ADAMTS13 MD recombinant antigen (ADAMTS13 metalloprotease domain (MP) linked with a disintegrin-like domain (D)); assay: hybridoma supernatant ELISA on immobilized ADAMTS13 MD antigen

| binding | Binder |
| --- | --- |
| binds | B1 |
| binds | B2 |
| binds | B3 |
